For one molecule, binding results are on record in article PMC11701102, “Structural insights into the interplay between microtubule polymerases, γ-tubulin complexes and their receptors” (Nature Communications, 2025).

This assay addresses T1, Spc97 (His-Spc97), C. albicans (C. albicans) (UniProt Q59PZ2).
T1 sequence: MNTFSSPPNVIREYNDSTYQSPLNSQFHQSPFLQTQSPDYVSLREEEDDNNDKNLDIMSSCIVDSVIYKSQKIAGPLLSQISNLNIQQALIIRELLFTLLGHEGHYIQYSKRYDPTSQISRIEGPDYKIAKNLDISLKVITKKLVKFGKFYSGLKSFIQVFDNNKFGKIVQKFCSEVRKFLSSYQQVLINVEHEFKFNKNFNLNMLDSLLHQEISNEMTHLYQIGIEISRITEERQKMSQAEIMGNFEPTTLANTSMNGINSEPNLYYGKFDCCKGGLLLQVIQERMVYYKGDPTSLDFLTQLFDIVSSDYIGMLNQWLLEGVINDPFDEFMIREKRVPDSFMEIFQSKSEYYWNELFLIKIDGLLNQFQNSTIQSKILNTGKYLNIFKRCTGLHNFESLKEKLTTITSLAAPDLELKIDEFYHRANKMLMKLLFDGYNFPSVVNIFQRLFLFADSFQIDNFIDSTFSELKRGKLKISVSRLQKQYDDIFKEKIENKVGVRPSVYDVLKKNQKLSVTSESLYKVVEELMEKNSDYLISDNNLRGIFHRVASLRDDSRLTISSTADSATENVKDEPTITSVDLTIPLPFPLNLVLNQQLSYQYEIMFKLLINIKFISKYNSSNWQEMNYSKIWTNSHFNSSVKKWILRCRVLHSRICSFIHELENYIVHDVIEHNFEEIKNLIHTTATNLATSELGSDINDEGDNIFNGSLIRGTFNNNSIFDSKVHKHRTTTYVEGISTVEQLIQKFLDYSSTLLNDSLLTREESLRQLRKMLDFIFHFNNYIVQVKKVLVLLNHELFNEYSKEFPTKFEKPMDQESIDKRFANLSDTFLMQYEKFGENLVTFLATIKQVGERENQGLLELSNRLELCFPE
The experiment in a line: cryo-EM structure; γ-TuSC/Spc72^1-599/FLAG-Stu2 complex purified via FLAG-Stu2; single particle analysis, γ-TuSC unit within oligomers at 3.6 Å, 14-spoked ring at 8.2 Å; both purified.

No constants are given. Whether binding was seen depends on the method and setting. Some binding calls cover weakened binding; strength is not graded here. Tags and fused reporters may be left off the sequences shown.

B1: His-Spc72^1-599 (C. albicans), co-expressed in insect cells (domain or fragment, UniProt Q5AGV5 1-599, looked up)
chain: MSNLSINESNDNSNVSILSNKSGAQSSTNSSPNLIVFKQPEDLSIQLQQQQQGTQEDTPEEEEEEEEEMEQITQLEVQQENQPDTLSSSPFISRPNSPLDDIIRPQGTSSPSLTIRDSYSSQVDINISNLHKSLNEMRLSTDPVDNNNNNNKVNKNNPTNSDISNDDIITIDNLTPSRIQPKNISPWRQFRPTLRGSPESTPRSLFQNKPNLKFNNGLSPTNGSRDMVTNNIATTTKSREEELNKRIVNYKIQLKLMKNFLQELIDRNNLDPHEFHTLLRRNNNNIMNNENNPLSTSLSQTSTLEIQHQNLQIELDEALELNKQLYNKIETANKEISDKDLQISNYESRINLINYSVDELIYILINEYDKNNYSHGGSNTTSPGKETLQQSISAQLEVKLNVLKLELMTRLDQSHQYNNKPHDLFTPPYTSSEYGVSTNNVANKNDLEGYIHIIEDLIKTVDELELTCENYKANKNELQNQLVEQINESIRIKNNFQIMSNKFNQLRQSLSEKENDKNLDEFSKNNHQQQQQQQIQQLEQKLIEYEKCITILQDELDQYKQPSDTTNTTNNNNNNNNNNNRSSYSSYNNHRNSSLNELN
notes: Only the CM1 motif is resolved in the cryo-EM map, as a parallel dimeric coiled coil; source: Sf21 insect cells, MultiBac co-expression with γ-TuSC components and FLAG-Stu2 or His-GFP-Mzt1
As to B1, the binding result is given as “binds”.
